Source: PubChem BioAssay AID330 (DTP/NCI, 2004)
The list does not hold the whole screen: it gathers tests that were run many times, whatever their T/C, doses with no T/C, and many T/C values between a quarter and a half above the control. Other doses and runs of a compound stand elsewhere. T/C is the treated group as % of the vehicle group. Some entries give survivors of the animals treated and no T/C: the source holds a T/C of zero for them, seemingly a mark for toxic or unscored doses. Some survivor counts are full or nearly so, which does not show that the dose was tolerated: the source hardly ever lists a survival T/C far under the control, and the zero likely stands for such cases as well. Survivors were counted at the toxicity check, usually on the fifth day, unless a day is given; later deaths do not show. Schedules are NCI's codes, taken here to give the interval after Q, in days (D) or hours (H), and the number of doses after X. Some doses were run more than once; the results are listed from low to high. Where survival is the endpoint, this PubChem deposit counts one and a half times the control or more as active, and values a quarter to a half above the control carry no call in these data; other NCI protocols may use other cut-offs.

Test system: P388 leukemia ip, CD2F1 mice, survival T/C
Experiment: NCI In Vivo Anticancer Drug Screen. Data for tumor model P388 Leukemia (intraperitoneal) in CD2F1 (CDF1) mice
Conditions: T/C endpoint: median survival time, higher T/C = longer survival
[1] = dose: 200.0 mg/kg/injection, schedule: Q01DX005 (ip), vehicle: saline with Tween-80
[2] = dose: 200.0 mg/kg/injection, schedule: Q01DX005 (ip), vehicle: Klucel (hydroxypropylcellulose) (HPC)
[3] = dose: 50.0 mg/kg/injection, schedule: Q01DX005 (ip), vehicle: Klucel (hydroxypropylcellulose) (HPC)
[4] = dose: 100.0 mg/kg/injection, schedule: Q01DX005 (ip), vehicle: Klucel (hydroxypropylcellulose) (HPC)
[5] = dose: 50.0 mg/kg/injection, schedule: Q01DX009 (ip), vehicle: Klucel (hydroxypropylcellulose) (HPC)
[6] = dose: 100.0 mg/kg/injection, schedule: Q01DX009 (ip), vehicle: Klucel (hydroxypropylcellulose) (HPC)
[7] = dose: 200.0 mg/kg/injection, schedule: Q01DX009 (ip), vehicle: Klucel (hydroxypropylcellulose) (HPC)
[8] = dose: 12.5 mg/kg/injection, schedule: Q01DX005 (ip), vehicle: saline with Tween-80
[9] = dose: 25.0 mg/kg/injection, schedule: Q01DX005 (ip), vehicle: saline with Tween-80
[10] = dose: 50.0 mg/kg/injection, schedule: Q01DX005 (ip), vehicle: saline with Tween-80
[11] = dose: 100.0 mg/kg/injection, schedule: Q01DX005 (ip), vehicle: saline with Tween-80
[12] = dose: 400.0 mg/kg/injection, schedule: Q04DX003 (ip), vehicle: saline with Tween-80
[13] = dose: 100.0 mg/kg/injection, schedule: Q01DX009 (ip), vehicle: saline
[14] = dose: 200.0 mg/kg/injection, schedule: Q01DX009 (ip), vehicle: saline
[15] = dose: 400.0 mg/kg/injection, schedule: Q01DX009 (ip), vehicle: saline
[16] = dose: 240.0 mg/kg/injection, schedule: Q01DX005 (ip), vehicle: saline with Tween-80

Compound: C/C=C/C[P+](C)(c1ccccc1)c1ccccc1
- survivor count (dose: 1.5 mg/kg/injection, schedule: Q01DX009 (ip), vehicle: saline): 1 of 6
- survivor count (dose: 3.0 mg/kg/injection, schedule: Q01DX009 (ip), vehicle: saline): 0 of 6

Compound: C(=N\SC(c1ccccc1)(c1ccccc1)c1ccccc1)/c1ccccc1
- survivor count [1]: 6 of 6

Compound: CC1CCN(CC(O)C(C)(C)Oc2ccc(-c3ccccc3)cc2)CC1 (configuration not stated)
- survivor count [2]: 0 of 6

Compound: O=C1c2cccc3cccc(c23)C(=O)N1CCNCCN1C(=O)c2cccc3cccc(c23)C1=O
- survivor count (dose: 120.0 mg/kg/injection, schedule: Q01DX005 (ip), vehicle: saline with Tween-80): 6 of 6

Compound: CC1(C)N=C(N)N=C(N)N1CCCCc1ccccc1
- survivor count (dose: 25.0 mg/kg/injection, schedule: Q01DX005 (ip), vehicle: Klucel (hydroxypropylcellulose) (HPC)): 2 of 6
- survivor count [3]: 0 of 6
- survivor count [4]: 0 of 6
- survivor count [2]: 0 of 6

Compound: Cc1cc(N(CCOS(C)(=O)=O)CCOS(C)(=O)=O)ccc1C=O
- survivor count (dose: 25.0 mg/kg/injection, schedule: Q01DX009 (ip), vehicle: Klucel (hydroxypropylcellulose) (HPC)): 6 of 6
- survivor count [5]: 4 of 6 and 6 of 6
- survivor count [6]: 1 of 6
- survivor count [7]: 0 of 6

Compound: C/C(=N\NC(=S)N1CCN(c2ccccc2)CC1)c1nccs1
- T/C [8]: 130 % of control
- survivor count [9]: 6 of 6
- T/C [10]: 136 % of control
- survivor count [10]: 2 of 6
- survivor count [11]: 0 of 6 and 3 of 6
- survivor count [1]: 1 of 6

Compound: C=C1C(O)C2(O)OCC34C(CC5C(C)=CC(=O)C(O)C5(C)C23)OC(=O)C(O)C14O (configuration not stated)
- survivor count (dose: 12.5 mg/kg/injection, schedule: Q01DX009 (ip), vehicle: saline): 3 of 6
- survivor count (dose: 25.0 mg/kg/injection, schedule: Q01DX009 (ip), vehicle: saline): 0 of 6

Compound: Clc1cc(Cl)c2c(c1)[nH]c1nc3ccccc3nc12
- survivor count [9]: 6 of 6

Compound: O=C1OC(=O)c2cc([N+](=O)[O-])cc3cccc1c23
- survivor count (dose: 400.0 mg/kg/injection, schedule: Q01DX005 (ip), vehicle: saline with Tween-80): 3 of 6

Compound: O=c1ccn(C2CCCCC2)c(=O)[nH]1
- survivor count [3]: 0 of 6
- survivor count [4]: 0 of 6
- survivor count [2]: 0 of 6

Compound: Cc1ccc(NC(=S)NCC2CCCO2)cc1C (configuration not stated)
- survivor count [5]: 6 of 6
- survivor count [6]: 5 of 6 and 6 of 6

Compound: CN=C(NC1CCCCC1)c1ccc(NC(=O)c2ccc(C(=O)Nc3ccc(C(=NC)NC4CCCCC4)cc3)cc2)cc1
- survivor count [8]: 0 of 6
- survivor count [9]: 0 of 6
- survivor count [10]: 0 of 6
- survivor count [11]: 0 of 6
- survivor count [1]: 0 of 6

Compound: C/C(=N\[N+](C)(C)C)c1ccccc1
- survivor count (dose: 200.0 mg/kg/injection, schedule: Q04DX003 (ip), vehicle: saline with Tween-80): 6 of 6
- survivor count [12]: 0 of 6

Compound: CC1COS(=O)(=O)C1 (configuration not stated)
- survivor count [13]: 0 of 6
- survivor count [14]: 0 of 6
- survivor count [15]: 0 of 6

Compound: O=c1oc2ccc3ccccc3c2cc1-n1nnc2ccccc21
- survivor count [16]: 6 of 6

Compound: Cn1c(=O)[nH]c2nnc(-c3ccccc3)nc2c1=O
- survivor count [7]: 0 of 6

Compound: O=c1[nH]cc(NS(=O)(=O)c2ccccc2)c(=O)[nH]1
- survivor count [16]: 3 of 6

Compound: CC(C)N1CCN(c2ccc(OCC3COC(Cn4cncn4)(c4ccc(Cl)cc4Cl)O3)cc2)CC1 (configuration not stated)
- survivor count [2]: 1 of 6

Compound: O=S1(=O)OC(c2ccc(O)c(O)c2)(c2ccc(O)c(O)c2)c2ccccc21
- survivor count [14]: 5 of 6
- survivor count [15]: 0 of 6
- survivor count (dose: 600.0 mg/kg/injection, schedule: Q01DX009 (ip), vehicle: saline): 0 of 6

Compound: N[C@H](C(=O)O)[C@H]1ON=C(Cl)[C@@H]1O
- T/C (dose: 0.5 mg/kg/injection, schedule: Q01DX009 (ip), vehicle: saline): 137 % of control
- T/C (dose: 1.0 mg/kg/injection, schedule: Q01DX009 (ip), vehicle: saline): 144 % of control
- T/C (dose: 2.0 mg/kg/injection, schedule: Q01DX009 (ip), vehicle: saline): 135 and 137 % of control

Compound: CCN1/C(=C/C=C/C=C/c2oc3ccccc3[n+]2CC)Oc2ccccc21
- survivor count (dose: 6.25 mg/kg/injection, schedule: Q01DX009 (ip), vehicle: suspension in saline): 0 of 6
- survivor count (dose: 12.5 mg/kg/injection, schedule: Q01DX009 (ip), vehicle: suspension in saline): 0 of 6
- survivor count (dose: 25.0 mg/kg/injection, schedule: Q01DX009 (ip), vehicle: suspension in saline): 0 of 6
- survivor count (dose: 50.0 mg/kg/injection, schedule: Q01DX009 (ip), vehicle: saline): 0 of 6
- survivor count [13]: 0 of 6
- survivor count [14]: 0 of 6

Compound: CN(C)C(=O)Nc1cccc2c(NC(=O)N(C)C)cccc12
- T/C [7]: 128 % of control

Compound: CC(C)(C)N1N=C2CCCC2[Si]1(C)C (configuration not stated)
- survivor count [2]: 4 of 6

Compound: N#CC1C(=O)NC(=O)C(C#N)C12CCCCC2 (configuration not stated)
- survivor count [12]: 4 of 6

Compound: N#CC1OC1c1ccc[n+]([O-])c1 (configuration not stated)
- survivor count (dose: 25.0 mg/kg/injection, schedule: Q01DX005 (ip), vehicle: saline): 1 of 6

Compound: CCN(CC)CCC[Si]1(C)c2ccccc2CCc2ccccc21
- survivor count (dose: 100.0 mg/kg/injection, schedule: Q04DX003 (ip), vehicle: saline): 0 of 6
- survivor count (dose: 200.0 mg/kg/injection, schedule: Q04DX003 (ip), vehicle: saline): 0 of 6
- survivor count (dose: 400.0 mg/kg/injection, schedule: Q04DX003 (ip), vehicle: saline): 0 of 6

Compound: CC(=O)OC(NC(=O)c1cc(C)cc(C)c1)c1ccncc1 (configuration not stated)
- survivor count [2]: 0 of 6

Compound: CNC(=O)OCc1c(COC(=O)NC)c2n(c1C)CSC2
- T/C [9]: 126 and 128 % of control
- T/C [10]: 131 and 132 % of control
- survivor count [11]: 5 of 6 and 6 of 6
- survivor count [1]: 6 of 6

Compound: Cc1cnc(C#N)c(Cl)n1
- survivor count (dose: 400.0 mg/kg/injection, schedule: Q01DX009 (ip), vehicle: saline with Tween-80): 6 of 6
